Laboratory results published in the supplement of paper PMC10849652.
Some of the results follow.

Chains of the proteins cited; added tags and fusions are not shown. Lines headed by an entry give the natural chain unless they say otherwise; changes in a name come on top.
UniProt P50851: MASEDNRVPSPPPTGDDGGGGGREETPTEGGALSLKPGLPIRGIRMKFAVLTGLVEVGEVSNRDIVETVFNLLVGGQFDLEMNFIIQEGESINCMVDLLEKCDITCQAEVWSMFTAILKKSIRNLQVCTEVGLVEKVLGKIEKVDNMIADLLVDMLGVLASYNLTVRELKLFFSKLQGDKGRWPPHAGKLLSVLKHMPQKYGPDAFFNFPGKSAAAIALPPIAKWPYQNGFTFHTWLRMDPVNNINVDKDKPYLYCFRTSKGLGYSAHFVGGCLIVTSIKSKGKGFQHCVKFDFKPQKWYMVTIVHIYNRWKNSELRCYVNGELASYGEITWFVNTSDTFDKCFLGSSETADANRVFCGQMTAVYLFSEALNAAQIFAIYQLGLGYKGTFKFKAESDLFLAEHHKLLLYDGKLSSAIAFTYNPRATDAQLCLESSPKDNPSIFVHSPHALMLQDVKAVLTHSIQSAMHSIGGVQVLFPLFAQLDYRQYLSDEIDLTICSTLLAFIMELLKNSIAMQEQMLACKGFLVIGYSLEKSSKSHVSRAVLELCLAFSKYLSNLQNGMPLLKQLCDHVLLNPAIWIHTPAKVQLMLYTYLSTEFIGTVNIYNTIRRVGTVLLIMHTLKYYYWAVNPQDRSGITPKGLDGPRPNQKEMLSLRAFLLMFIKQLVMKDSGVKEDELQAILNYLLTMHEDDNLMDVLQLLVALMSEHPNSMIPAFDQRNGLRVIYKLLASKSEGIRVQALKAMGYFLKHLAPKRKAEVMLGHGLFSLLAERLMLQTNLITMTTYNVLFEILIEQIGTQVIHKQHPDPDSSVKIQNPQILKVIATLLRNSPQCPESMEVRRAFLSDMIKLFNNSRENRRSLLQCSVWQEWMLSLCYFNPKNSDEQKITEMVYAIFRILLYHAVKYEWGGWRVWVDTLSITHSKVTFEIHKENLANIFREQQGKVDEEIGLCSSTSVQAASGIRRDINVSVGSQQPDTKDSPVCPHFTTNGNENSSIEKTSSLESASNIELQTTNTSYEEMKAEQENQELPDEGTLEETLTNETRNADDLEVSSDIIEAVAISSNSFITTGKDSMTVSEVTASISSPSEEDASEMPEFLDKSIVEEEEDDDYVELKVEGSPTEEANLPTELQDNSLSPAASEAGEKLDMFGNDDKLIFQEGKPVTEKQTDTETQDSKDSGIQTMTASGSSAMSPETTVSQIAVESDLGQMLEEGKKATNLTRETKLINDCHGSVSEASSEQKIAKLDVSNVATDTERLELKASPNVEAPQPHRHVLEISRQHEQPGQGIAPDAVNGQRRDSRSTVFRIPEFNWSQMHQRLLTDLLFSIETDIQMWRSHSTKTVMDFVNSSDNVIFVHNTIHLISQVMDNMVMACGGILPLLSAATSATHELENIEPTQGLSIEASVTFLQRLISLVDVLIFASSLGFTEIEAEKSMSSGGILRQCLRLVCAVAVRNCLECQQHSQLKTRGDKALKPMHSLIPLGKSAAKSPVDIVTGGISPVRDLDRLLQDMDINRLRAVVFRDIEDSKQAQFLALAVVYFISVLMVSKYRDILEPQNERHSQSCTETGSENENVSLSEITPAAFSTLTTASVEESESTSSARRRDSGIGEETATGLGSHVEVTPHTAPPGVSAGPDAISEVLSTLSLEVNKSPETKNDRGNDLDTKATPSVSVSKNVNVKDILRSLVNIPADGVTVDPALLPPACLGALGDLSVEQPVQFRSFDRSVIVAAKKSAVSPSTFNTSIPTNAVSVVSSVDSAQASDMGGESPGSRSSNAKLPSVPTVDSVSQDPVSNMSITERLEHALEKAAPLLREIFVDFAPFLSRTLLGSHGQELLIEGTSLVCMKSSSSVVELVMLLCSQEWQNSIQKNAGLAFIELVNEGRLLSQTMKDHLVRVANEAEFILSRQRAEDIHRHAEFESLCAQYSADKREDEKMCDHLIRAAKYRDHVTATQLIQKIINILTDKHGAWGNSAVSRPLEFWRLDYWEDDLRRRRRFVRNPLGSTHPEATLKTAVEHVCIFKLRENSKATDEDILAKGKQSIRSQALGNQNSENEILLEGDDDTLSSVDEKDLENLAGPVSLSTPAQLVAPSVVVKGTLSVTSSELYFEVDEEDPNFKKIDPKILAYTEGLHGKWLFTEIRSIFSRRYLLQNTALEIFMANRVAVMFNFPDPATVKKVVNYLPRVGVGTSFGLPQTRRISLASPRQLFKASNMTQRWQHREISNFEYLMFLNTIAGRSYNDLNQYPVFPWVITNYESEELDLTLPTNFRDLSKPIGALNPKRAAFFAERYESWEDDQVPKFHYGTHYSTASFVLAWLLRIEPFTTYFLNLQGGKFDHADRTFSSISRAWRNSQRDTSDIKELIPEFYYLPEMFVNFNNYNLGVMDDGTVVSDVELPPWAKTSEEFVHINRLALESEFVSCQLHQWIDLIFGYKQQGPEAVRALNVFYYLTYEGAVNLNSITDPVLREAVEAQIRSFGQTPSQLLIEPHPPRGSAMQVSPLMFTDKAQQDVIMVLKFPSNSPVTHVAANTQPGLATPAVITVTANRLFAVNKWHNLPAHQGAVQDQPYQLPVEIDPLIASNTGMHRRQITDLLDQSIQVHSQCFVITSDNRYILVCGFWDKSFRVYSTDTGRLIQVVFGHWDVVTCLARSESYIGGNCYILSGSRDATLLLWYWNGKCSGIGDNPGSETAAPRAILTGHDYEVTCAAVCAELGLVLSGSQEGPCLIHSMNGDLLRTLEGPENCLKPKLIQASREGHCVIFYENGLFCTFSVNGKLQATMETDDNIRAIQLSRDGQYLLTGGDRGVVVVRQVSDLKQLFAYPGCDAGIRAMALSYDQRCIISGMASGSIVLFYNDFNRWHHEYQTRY
UniProt Q6P1M3: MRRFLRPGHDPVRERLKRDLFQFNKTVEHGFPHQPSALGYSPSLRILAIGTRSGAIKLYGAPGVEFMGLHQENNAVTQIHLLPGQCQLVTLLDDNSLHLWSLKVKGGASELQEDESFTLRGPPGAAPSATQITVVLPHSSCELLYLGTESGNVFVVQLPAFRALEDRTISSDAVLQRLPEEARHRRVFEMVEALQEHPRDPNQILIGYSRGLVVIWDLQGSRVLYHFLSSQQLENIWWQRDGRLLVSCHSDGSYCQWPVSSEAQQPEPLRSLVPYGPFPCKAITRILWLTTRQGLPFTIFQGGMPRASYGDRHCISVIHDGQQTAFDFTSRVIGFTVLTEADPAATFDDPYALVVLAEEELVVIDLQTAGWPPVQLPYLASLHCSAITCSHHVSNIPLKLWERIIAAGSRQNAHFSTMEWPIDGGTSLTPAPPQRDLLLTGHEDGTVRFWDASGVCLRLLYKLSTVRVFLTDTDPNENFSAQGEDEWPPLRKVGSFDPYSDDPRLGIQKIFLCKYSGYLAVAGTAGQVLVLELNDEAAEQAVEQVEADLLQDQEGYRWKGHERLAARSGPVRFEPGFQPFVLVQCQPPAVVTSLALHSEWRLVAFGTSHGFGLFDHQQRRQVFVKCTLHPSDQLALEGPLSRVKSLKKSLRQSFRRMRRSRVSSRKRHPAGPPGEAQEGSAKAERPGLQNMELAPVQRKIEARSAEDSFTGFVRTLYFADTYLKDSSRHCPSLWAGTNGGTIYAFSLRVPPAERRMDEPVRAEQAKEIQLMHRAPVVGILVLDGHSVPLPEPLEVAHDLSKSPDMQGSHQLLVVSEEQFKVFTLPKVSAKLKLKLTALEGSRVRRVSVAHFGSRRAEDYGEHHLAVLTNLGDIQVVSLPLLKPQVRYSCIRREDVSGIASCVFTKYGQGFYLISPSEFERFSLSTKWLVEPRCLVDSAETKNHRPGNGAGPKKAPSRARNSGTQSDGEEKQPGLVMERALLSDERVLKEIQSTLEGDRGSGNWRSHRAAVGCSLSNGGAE
UniProt P07864: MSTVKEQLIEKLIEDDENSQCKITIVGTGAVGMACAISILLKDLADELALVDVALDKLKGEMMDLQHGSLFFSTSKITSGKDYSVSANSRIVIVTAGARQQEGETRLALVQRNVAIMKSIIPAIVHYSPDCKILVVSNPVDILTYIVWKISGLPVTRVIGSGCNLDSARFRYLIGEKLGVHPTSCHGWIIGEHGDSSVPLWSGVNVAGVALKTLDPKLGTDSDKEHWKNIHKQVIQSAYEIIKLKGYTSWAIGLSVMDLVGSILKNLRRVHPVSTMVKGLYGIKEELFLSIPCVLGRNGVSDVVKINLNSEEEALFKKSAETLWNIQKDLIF
UniProt P61968: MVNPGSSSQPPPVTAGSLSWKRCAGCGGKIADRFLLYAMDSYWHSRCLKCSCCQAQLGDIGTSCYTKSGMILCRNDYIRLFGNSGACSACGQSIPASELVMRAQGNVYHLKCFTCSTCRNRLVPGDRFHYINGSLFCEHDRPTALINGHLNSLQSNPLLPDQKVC
UniProt Q86VI4: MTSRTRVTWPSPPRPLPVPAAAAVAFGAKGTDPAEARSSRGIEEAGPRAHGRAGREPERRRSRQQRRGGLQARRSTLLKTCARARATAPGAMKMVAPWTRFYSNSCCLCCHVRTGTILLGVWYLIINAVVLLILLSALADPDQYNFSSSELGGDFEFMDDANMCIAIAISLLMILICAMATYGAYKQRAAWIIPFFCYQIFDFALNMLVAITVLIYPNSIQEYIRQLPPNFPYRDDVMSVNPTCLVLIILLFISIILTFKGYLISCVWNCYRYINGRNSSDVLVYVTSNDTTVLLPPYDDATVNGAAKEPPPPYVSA
UniProt Q9GZZ8: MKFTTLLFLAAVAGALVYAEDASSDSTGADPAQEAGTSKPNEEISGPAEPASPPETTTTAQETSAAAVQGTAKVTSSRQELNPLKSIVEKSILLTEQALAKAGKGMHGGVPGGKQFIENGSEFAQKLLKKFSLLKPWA
UniProt Q15048: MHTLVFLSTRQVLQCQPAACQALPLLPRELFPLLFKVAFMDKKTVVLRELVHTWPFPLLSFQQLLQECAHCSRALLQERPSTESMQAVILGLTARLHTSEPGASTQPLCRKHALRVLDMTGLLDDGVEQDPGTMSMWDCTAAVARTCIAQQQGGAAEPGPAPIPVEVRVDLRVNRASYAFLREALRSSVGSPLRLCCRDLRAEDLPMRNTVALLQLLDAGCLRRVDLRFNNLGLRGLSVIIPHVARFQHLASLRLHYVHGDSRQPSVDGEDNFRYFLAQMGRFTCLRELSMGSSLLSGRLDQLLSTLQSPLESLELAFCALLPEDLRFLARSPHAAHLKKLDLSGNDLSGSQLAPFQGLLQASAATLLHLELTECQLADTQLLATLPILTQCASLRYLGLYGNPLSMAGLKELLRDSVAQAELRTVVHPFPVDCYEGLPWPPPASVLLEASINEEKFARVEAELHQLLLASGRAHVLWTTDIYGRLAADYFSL
UniProt Q9Y4W2: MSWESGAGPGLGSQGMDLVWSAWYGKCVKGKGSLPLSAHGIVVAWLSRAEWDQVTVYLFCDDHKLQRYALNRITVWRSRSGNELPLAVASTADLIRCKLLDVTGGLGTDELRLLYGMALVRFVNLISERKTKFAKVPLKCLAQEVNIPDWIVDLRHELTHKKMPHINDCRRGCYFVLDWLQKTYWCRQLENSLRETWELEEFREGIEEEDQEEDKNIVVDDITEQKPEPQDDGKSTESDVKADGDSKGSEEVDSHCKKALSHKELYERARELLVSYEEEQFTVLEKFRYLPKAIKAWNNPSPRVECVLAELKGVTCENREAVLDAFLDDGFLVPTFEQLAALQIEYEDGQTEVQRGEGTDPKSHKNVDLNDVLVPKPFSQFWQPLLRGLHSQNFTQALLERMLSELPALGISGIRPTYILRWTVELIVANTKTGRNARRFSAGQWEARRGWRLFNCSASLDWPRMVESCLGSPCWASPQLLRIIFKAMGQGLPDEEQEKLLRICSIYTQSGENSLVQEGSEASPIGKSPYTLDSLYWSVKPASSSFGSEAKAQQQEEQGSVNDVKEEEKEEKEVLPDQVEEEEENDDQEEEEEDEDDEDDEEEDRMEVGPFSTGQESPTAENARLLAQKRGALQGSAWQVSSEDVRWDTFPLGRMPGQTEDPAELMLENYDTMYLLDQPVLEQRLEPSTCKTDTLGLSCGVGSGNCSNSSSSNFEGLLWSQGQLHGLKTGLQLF
UniProt Q13094: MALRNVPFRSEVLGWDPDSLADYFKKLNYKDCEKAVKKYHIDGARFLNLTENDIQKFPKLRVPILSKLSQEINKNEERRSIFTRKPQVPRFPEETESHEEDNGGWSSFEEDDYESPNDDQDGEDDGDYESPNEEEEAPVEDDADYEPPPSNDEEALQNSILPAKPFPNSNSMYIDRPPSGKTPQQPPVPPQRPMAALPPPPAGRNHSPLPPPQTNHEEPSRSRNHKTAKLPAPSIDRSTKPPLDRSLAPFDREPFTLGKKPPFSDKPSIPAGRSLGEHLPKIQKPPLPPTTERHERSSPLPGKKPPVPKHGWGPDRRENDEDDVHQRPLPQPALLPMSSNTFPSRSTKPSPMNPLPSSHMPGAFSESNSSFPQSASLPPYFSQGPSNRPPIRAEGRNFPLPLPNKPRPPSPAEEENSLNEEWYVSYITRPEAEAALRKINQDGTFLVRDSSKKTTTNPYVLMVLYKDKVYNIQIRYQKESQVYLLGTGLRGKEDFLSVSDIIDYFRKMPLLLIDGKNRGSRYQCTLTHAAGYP

How the values were obtained:
Test in all cases: log2 fold change, soluble protein after heating vs DMSO (PISA); higher = thermal stabilisation; K562 cells, 10 uM, 30 min; active = over 0.2 and 3.5 SD of the protein, either way, in both replicates (recomputed)
[1] = compound: Cc1ccc(NC(=O)c2ccc(CN3CC[C@H](N(C)C)C3)c(C(F)(F)F)c2)cc1Nc1nccc(-c2cncnc2)n1 [bafetinib]
In short: (§1)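 For each measurement, 10 μM compound was applied for 30 min to K562 cells at 2×10^6 cells/mL. Aliquots were heated for 3 min across 48°C-58°C, pooled, and extracted in PBS with 0.5% NP-40 at 4°C; the supernatant after 21,000xg for 90 min was soluble protein. This was quantified by TMTpro 16plex LC-MS/MS with channel sums equalised, and thermal stability was reported relative to control samples from duplicates, on a log2 fold-change scale.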

[2] = compound: Cc1cccc(CC(=O)N2CCc3c2ccc(-c2cn(C)c4ncnc(N)c24)c3F)n1
In short: as §1

[3] = compound: Cc1nc(Nc2ncc(C(=O)Nc3c(C)cccc3Cl)s2)cc(N2CCN(CCO)CC2)n1 [dasatinib]
In short: as §1

[4] = compound: Cn1cc(-c2ccc3c(c2)CCN3C(=O)Cc2cccc(C(F)(F)F)c2)c2c(N)ncnc21
In short: as §1

[5] = compound: Cn1cc(-c2ccc3nnc(C(F)(F)c4ccc5ncccc5c4)n3n2)cn1
In short: as §1

[6] = compound: Cn1cncc1[C@@](N)(c1ccc(Cl)cc1)c1ccc2c(c1)c(-c1cccc(Cl)c1)cc(=O)n2C [tipifarnib]
In short: as §1

[7] = compound: FC(F)(F)c1ccc(/C=C/c2nc(COc3ccc(CCCCn4ccnn4)cc3)co2)cc1 [mubritinib]
In short: as §1

[8] = compound: Cc1cn(-c2cc(NC(=O)c3ccc(C)c(Nc4nccc(-c5cccnc5)n4)c3)cc(C(F)(F)F)c2)cn1 [nilotinib]
In short: as §1

[9] = compound: Cc1nc(Nc2n[nH]c3c2CN(C(=O)N[C@H](CN(C)C)c2ccccc2)C3(C)C)c2sccc2n1
In short: as §1

[10] = compound: Cc1ncc(-c2ccnc(Nc3ccc(S(C)(=O)=O)cc3)n2)n1C(C)C
In short: as §1

Measured: log2 fold change

KXD1 (UniProt Q9BQD3)
inactive: [1] -0.131 | [2] 0.045 | [3] -0.082 | [4] 0.019 | [5] 0.085 | [6] 0.024 | [7] 0.052

LAPTM5 (UniProt Q13571)
inactive: [1] 0.103 | [2] 0.056 | [3] 0.05 | [4] -0.205 | [5] -0.161

LMTK2 (UniProt Q8IWU2)
inactive: [1] -0.036 | [2] -0.03 | [3] 0.079 | [4] 0.156 | [5] -0.032 | [6] 0.155 | [7] -0.021

L3HYPDH (UniProt Q96EM0)
inactive: [1] -0.009 | [2] -0.019 | [8] 0.051 | [9] 0.004 | [3] 0.05 | [10] 0.026 | [4] 0.141 | [5] 0.031 | [6] -0.028 | [7] 0.076

LRBA (UniProt P50851)
inactive: [1] -0.047 | [2] 0.053 | [8] -0.067 | [9] -0.022 | [3] -0.061 | [10] 0.014 | [4] 0.047 | [5] 0.002 | [6] -0.06 | [7] 0.024

LRP6 (UniProt O75581)
inactive: [1] 0.089 | [2] 0.028 | [3] -0.011 | [4] 0.048 | [6] 0.085

LIG1 (UniProt P18858)
inactive: [1] 0.028 | [2] 0.043 | [8] -0.113 | [9] 0.037 | [3] -0.262 | [10] -0.092 | [4] 0.044 | [5] 0.194 | [6] -0.094 | [7] 0.037

LLGL2 (UniProt Q6P1M3)
inactive: [1] 0.016 | [2] 0.076 | [8] 0.029 | [9] 0.206 | [10] -0.104 | [4] -0.079 | [5] 0.028 | [6] 0.044 | [7] -0.098

LDHC (UniProt P07864)
inactive: [1] 0.01 | [8] -0.019 | [9] -0.012 | [10] 0.009

LMO4 (UniProt P61968)
inactive: [1] -0.09 | [2] 0.112 | [3] 0.122 | [4] 0.04 | [5] -0.233 | [6] 0.081 | [7] 0.141

LENG8 (UniProt Q96PV6)
inactive: [1] -0.088 | [2] 0.112 | [8] 0.006 | [9] -0.036 | [3] -0.388 | [10] -0.146 | [4] -0.039 | [5] -0.031 | [7] 0.032

LPP (UniProt Q93052)
inactive: [1] -0.169 | [8] 0.114 | [9] 0.034 | [10] 0.15

LAPTM4B (UniProt Q86VI4)
inactive: [1] 0.024 | [2] -0.137 | [7] 0.017

LMBRD1 (UniProt Q9NUN5)
inactive: [1] -0.065 | [2] 0.01 | [8] -0.006 | [9] -0.062 | [3] 0.064 | [10] 0.026 | [4] -0.139 | [5] 0.014 | [6] -0.156 | [7] 0.08

LRP10 (UniProt Q7Z4F1)
inactive: [1] -0.075 | [8] 0.041 | [9] -0.094 | [3] 0.099 | [10] -0.033 | [4] 0.08 | [5] 0.075 | [6] 0.065 | [7] -0.014

LACRT (UniProt Q9GZZ8)
inactive: [1] 0.654 | [8] -0.196 | [9] 0.165 | [10] 0.31 | [4] 0 | [5] 0.233 | [7] 0.039

LRRC14 (UniProt Q15048)
inactive: [1] -0.125 | [8] 0.026 | [9] -0.022 | [3] -0.086 | [10] 0.173 | [6] 0.04 | [7] 0.245

LEO1 (UniProt Q8WVC0)
inactive: [1] -0.003 | [2] 0.008 | [8] -0.125 | [9] -0.045 | [3] 0.049 | [10] -0.094 | [4] -0.026 | [5] 0.023 | [6] -0.009 | [7] 0.035

LGALS3 (UniProt P17931)
inactive: [1] -0.084 | [2] 0.07 | [8] -0.12 | [9] 0.067 | [3] -0.061 | [10] 0.052 | [5] 0.258 | [7] -0.061

LRRC40 (UniProt Q9H9A6)
inactive: [1] 0.014 | [2] 0.011 | [8] -0.035 | [9] -0.182 | [3] -0.25 | [10] -0.026 | [4] -0.002 | [5] 0.051 | [6] -0.103 | [7] 0.108

Pulled one by one from the entries so far, two records:
LRRC14 (UniProt Q15048)
inactive: [1] -0.125 | [8] 0.026 | [9] -0.022 | [3] -0.086 | [10] 0.173 | [6] 0.04 | [7] 0.245

LRRC40 (UniProt Q9H9A6)
inactive: [1] 0.014 | [2] 0.011 | [8] -0.035 | [9] -0.182 | [3] -0.25 | [10] -0.026 | [4] -0.002 | [5] 0.051 | [6] -0.103 | [7] 0.108

Additional records

LAS1L (UniProt Q9Y4W2)
inactive: [1] 0.187 | [2] -0.135 | [3] 0.091 | [4] -0.364 | [5] -0.035 | [6] 0.272

LCMT2 (UniProt O60294)
inactive: [1] -0.104 | [2] -0.042 | [8] -0.045 | [9] 0.161 | [3] -0.071 | [10] 0.042 | [4] 0.082 | [6] -0.338 | [7] 0.196

LETMD1 isoform 7 (UniProt Q6P1Q0)
inactive: [1] -0.108 | [2] -0.072 | [8] -0.04 | [9] 0.01 | [3] -0.01 | [10] -0.027 | [5] -0.085 | [6] -0.102 | [7] -0.108

LGALS8 isoform 2 (UniProt O00214)
inactive: [1] 0.107 | [2] 0.079 | [3] 0.013 | [4] -0.253 | [7] -0.186

LCP2 (UniProt Q13094)
inactive: [1] -0.034 | [2] -0.02 | [3] -0.099 | [5] -0.057

LEPROTL1 isoform 2 (UniProt O95214)
inactive: [1] 0.212 | [8] -0.067 | [9] 0.125 | [3] 0.012 | [10] -0.201 | [4] -0.064 | [5] -0.052 | [6] 0.216 | [7] 0.083

LAMTOR4 (UniProt Q0VGL1)
inactive: [1] -0.122 | [2] 0.038 | [8] -0.015 | [9] -0.048 | [3] 0.06 | [10] -0.13 | [4] -0.059 | [5] 0.052 | [6] 0.123 | [7] 0.049

LPGAT1 (UniProt Q92604)
inactive: [1] -0.086 | [8] -0.04 | [9] -0.128 | [3] 0.086 | [10] 0.048 | [4] 0.055 | [5] -0.082 | [6] 0.01 | [7] 0.067

LEPROT (UniProt O15243)
inactive: [2] 0.03 | [3] 0.188 | [4] -0.193 | [7] 0.041

LHFPL2 (UniProt Q6ZUX7)
inactive: [6] 0.039
